# Results: US20130078247A1
# Results are given in words; binding and its absence hold for the method and conditions named.
# Assays:
# [1] = target: hDLL4.1; experiment: SPR Biacore; VHH on CM4 chip, deletion mutant injected
# [2] = target: mDLL4.8; experiment: as above
# [3] = target: mouse DLL4 deletion mutant mDII4.8 (lacking the EGF-like 2 domain) (mouse); experiment: Biacore, VHH coated, deletion mutant injected
# [4] = target: human DLL4 deletion mutant hDII4.1 (lacking the EGF-like 2 domain) (human); experiment: Biacore, VHH coated, deletion mutant injected
binding [1],binding [2],binding [3],binding [4],Binder
no binding (tested: 200 nM),no binding (tested: 200 nM),no binding (tested: 200 nM),no binding (tested: 200 nM),"DLLBII101G08 (VHH, not shown: small tags and cut ends) VHH: EVQLVESGGGLVQAGGSLRLSCAASGRTFSSYAMAWFRQAPGKEREFVAAIRWSGGTAYYADSVQGRFTISRDNAKNTVYLQMNSLKPEDTAVYYCANRAADTRLGPYEYDYWGQGTQVTVSS"
no binding (tested: 200 nM),no binding (tested: 200 nM),no binding (tested: 200 nM),no binding (tested: 200 nM),"DLLBII56A09 (VHH, not shown: small tags and cut ends) VHH: EVQLVESGGGLVQPGGSLRLSCAASGFTFDDYAIGWFRQAPGKEPEGISCISSSGGITYYADSVKGRFTTSRDNAKNTVYLQMNSLKPEDTAVYYCATPGIAACRGIHYTGQGTQVTVSS"
no binding (tested: 200 nM),no binding (tested: 200 nM),no binding (tested: 200 nM),no binding (tested: 200 nM),"DLLBII115A05 (VHH, not shown: small tags and cut ends) VHH: EVQLVESGGGLVQPGGSLRLSCAASGFTFGSYDMSWVRRSPGKGPEWVSSINSGGGSTYYADFVKGRFTISRDNAKNTLYLQMNSLKPEDTAVYYCAADRYIRARQGDYWGAYEYDYWGQGTQVTVSS"
